Article doi:10.1101/2023.12.12.571289
These are yes or no findings as the source states them, for the method shown. For part of these data: In cells and extracts the contact can be indirect. Some binding calls cover weakened binding; strength is not graded here.

Protein sequences, listed by entry. Tags and fused reporters are not part of them. Residues count along the entry.
UniProt P07996, residues 19-1170: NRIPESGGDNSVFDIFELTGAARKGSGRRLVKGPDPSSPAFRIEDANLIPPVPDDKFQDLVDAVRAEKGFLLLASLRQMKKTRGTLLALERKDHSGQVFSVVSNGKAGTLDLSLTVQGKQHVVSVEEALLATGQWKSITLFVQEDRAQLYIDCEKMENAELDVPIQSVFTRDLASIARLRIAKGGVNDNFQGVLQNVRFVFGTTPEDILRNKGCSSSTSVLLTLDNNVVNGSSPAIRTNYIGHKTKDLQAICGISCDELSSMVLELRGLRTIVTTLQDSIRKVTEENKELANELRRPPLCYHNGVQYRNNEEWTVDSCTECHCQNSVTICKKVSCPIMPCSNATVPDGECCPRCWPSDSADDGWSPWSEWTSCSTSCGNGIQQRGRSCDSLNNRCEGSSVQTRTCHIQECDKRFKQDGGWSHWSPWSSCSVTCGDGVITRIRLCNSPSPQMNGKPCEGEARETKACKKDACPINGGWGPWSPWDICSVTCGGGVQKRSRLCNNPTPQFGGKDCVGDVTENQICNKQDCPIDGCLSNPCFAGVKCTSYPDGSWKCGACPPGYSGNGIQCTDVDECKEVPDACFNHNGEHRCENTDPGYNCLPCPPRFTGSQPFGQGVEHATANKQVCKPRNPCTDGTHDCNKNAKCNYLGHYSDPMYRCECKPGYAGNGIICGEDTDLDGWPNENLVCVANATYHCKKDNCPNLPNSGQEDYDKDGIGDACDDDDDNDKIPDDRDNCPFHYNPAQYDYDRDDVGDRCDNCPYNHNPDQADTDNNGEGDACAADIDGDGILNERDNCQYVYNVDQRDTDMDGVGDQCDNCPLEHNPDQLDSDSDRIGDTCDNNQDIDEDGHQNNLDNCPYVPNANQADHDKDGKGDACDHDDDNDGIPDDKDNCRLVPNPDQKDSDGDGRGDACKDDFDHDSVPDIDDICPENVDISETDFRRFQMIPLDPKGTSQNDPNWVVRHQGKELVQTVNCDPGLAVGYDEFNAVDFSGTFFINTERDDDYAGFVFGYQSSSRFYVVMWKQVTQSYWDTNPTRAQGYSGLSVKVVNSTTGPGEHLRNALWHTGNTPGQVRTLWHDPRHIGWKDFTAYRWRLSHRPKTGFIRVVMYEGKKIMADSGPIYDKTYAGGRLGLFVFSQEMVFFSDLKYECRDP
UniProt P14780, residues 107-707: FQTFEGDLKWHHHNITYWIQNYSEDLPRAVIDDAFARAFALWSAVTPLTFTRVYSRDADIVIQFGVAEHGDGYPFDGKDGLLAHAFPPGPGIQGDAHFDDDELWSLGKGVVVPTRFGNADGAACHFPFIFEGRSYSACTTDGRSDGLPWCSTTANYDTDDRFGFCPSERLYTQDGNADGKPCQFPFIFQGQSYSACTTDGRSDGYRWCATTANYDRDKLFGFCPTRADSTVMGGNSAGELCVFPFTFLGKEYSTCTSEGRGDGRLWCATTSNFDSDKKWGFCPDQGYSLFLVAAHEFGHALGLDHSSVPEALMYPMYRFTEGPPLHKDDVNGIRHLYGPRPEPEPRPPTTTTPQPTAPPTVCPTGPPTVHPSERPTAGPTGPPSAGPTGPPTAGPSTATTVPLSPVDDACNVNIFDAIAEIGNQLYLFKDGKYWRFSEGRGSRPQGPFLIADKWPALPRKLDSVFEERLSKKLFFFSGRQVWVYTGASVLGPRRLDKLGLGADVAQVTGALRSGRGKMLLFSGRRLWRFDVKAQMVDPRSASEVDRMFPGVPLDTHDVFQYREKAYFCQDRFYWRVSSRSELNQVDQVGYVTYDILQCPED

Tests used:
[1] = molecular target: T1, Extracellular Matrix Protein 1 (ECM1), endogenous in LX-2 HSCs (human (endogenous in LX-2)) (UniProt Q16610); assay: co-IP
T1 sequence: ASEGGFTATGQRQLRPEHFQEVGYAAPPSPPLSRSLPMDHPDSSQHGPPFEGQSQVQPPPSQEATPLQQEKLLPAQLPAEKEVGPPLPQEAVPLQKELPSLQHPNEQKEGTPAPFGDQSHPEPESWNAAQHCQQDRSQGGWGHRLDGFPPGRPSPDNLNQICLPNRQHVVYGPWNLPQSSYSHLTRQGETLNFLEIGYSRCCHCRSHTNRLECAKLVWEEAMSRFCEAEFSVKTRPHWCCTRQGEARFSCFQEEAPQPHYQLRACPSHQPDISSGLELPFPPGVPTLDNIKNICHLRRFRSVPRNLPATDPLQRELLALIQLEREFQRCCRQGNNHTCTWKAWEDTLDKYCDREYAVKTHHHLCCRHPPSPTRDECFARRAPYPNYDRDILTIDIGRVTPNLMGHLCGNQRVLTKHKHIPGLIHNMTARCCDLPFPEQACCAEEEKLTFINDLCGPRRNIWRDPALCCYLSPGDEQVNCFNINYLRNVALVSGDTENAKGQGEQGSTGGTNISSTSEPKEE

recombinant ECM1 (rECM1) = molecular target: T2, recombinant ECM1 (rECM1) (UniProt Q16610); assay: pull-down
T2 sequence: T1 sequence

With “Thrombospondin 1 (TSP-1), endogenous in LX-2 HSCs (from UniProt P07996 19-1170)” the binding [1] was “binds”.

“matrix metalloproteinase-9 (MMP-9), mature form, endogenous in LX-2 HSCs (from UniProt P14780 107-707) (enzyme)” was tested, and the binding [1] was “binds”.

In the case of “recombinant Thrombospondin 1 (TSP-1) (from UniProt P07996 19-1170)”, the binding (recombinant ECM1 (rECM1)) is reported as “binds”.
